# Laboratory results taken from the supplement of paper PMC8728848.
# The other results are listed elsewhere or left out.
# Experiments:
# Test in all cases: glycan array binding signal (z-score within array); higher = stronger binding
# Settings in all cases: glycan notation: IUPAC condensed, linker removed
# Fuc(a1-2)Gal = target: Fuc(a1-2)Gal
# How it was run: (§1)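 The binding signal is a Z-score computed within each array and averaged over linkers. Arrays of the same protein sequence at different concentrations or buffers were also averaged together. Data originate from 3228 arrays in the Consortium for Functional Glycomics database, kept only where the protein sequence was available.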
# Fuc(a1-2)Gal(b1-3)GalNAc = target: Fuc(a1-2)Gal(b1-3)GalNAc
# How it was run: as §1
# [1] = target: Fuc(a1-2)Gal(b1-3)GalNAc(b1-3)Gal
# How it was run: as §1
# [2] = target: Fuc(a1-2)Gal(b1-3)GalNAc(b1-3)Gal(a1-4)Gal(b1-4)Glc
# How it was run: as §1
# [3] = target: Fuc(a1-2)Gal(b1-3)GalNAc(b1-4)[Neu5Ac(a2-3)]Gal(b1-4)Glc
# How it was run: as §1
# Fuc(a1-2)Gal(b1-3)GlcNAc = target: Fuc(a1-2)Gal(b1-3)GlcNAc
# How it was run: as §1
# [4] = target: Fuc(a1-2)Gal(b1-3)GlcNAc(b1-3)Gal(b1-4)Glc
# How it was run: as §1
# [5] = target: Fuc(a1-2)Gal(b1-3)[Fuc(a1-4)]GlcNAc
# How it was run: as §1
# Fuc(a1-2)Gal(b1-4)Glc = target: Fuc(a1-2)Gal(b1-4)Glc
# How it was run: as §1
# Fuc(a1-2)Gal(b1-4)Glc6S = target: Fuc(a1-2)Gal(b1-4)Glc6S
# How it was run: as §1
# Fuc(a1-2)Gal(b1-4)GlcNAc = target: Fuc(a1-2)Gal(b1-4)GlcNAc
# How it was run: as §1
# [6] = target: Fuc(a1-2)Gal(b1-4)GlcNAc(b1-3)Gal(b1-4)GlcNAc
# How it was run: as §1
# [7] = target: Fuc(a1-2)Gal(b1-4)GlcNAc(b1-3)Gal(b1-4)GlcNAc(b1-3)Gal(b1-4)GlcNAc
# How it was run: as §1
# [8] = target: Fuc(a1-2)Gal(b1-4)GlcNAc6S
# How it was run: as §1
# [9] = target: Fuc(a1-2)Gal(b1-4)[Fuc(a1-3)]GlcNAc
# How it was run: as §1
# [10] = target: Fuc(a1-2)Gal(b1-4)[Fuc(a1-3)]GlcNAc(b1-3)Gal(b1-4)[Fuc(a1-3)]GlcNAc
# How it was run: as §1
# [11] = target: Fuc(a1-2)Gal(b1-4)[Fuc(a1-3)]GlcNAc(b1-3)Gal(b1-4)[Fuc(a1-3)]GlcNAc(b1-3)Gal(b1-4)[Fuc(a1-3)]GlcNAc
# How it was run: as §1
# Fuc(a1-2)Gal6S(b1-4)Glc = target: Fuc(a1-2)Gal6S(b1-4)Glc
# How it was run: as §1
# [12] = target: Fuc(a1-2)Gal6S(b1-4)Glc6S
# How it was run: as §1
# [13] = target: Fuc(a1-2)Gal6S(b1-4)GlcNAc
# How it was run: as §1
# Fuc(a1-2)[Gal(a1-3)]Gal = target: Fuc(a1-2)[Gal(a1-3)]Gal
# How it was run: as §1
# [14] = target: Fuc(a1-2)[Gal(a1-3)]Gal(b1-3)GlcNAc
# How it was run: as §1
# [15] = target: Fuc(a1-2)[Gal(a1-3)]Gal(b1-4)Glc
# How it was run: as §1
# [16] = target: Fuc(a1-2)[Gal(a1-3)]Gal(b1-4)GlcNAc
# How it was run: as §1
# [17] = target: Fuc(a1-2)[Gal(a1-3)]Gal(b1-4)[Fuc(a1-3)]GlcNAc
# How it was run: as §1
# [18] = target: Fuc(a1-2)[Gal(a1-4)]Gal(b1-4)GlcNAc
# How it was run: as §1
# [19] = target: Fuc(a1-2)[GalNAc(a1-3)]Gal
# How it was run: as §1
# [20] = target: Fuc(a1-2)[GalNAc(a1-3)]Gal(b1-3)GlcNAc
# How it was run: as §1
# [21] = target: Fuc(a1-2)[GalNAc(a1-3)]Gal(b1-4)Glc
# How it was run: as §1
# [22] = target: Fuc(a1-2)[GalNAc(a1-3)]Gal(b1-4)GlcNAc
# How it was run: as §1
# [23] = target: Fuc(a1-2)[GalNAc(a1-3)]Gal(b1-4)[Fuc(a1-3)]GlcNAc
# How it was run: as §1
# [24] = target: Fuc(a1-2)[GalNAc(a1-4)]Gal(b1-4)GlcNAc
# How it was run: as §1
# [25] = target: Fuc(a1-2)[GalNAc(b1-3)]Gal
# How it was run: as §1
# Fuc(a1-3)GlcNAc = target: Fuc(a1-3)GlcNAc
# How it was run: as §1
# [26] = target: Fuc(a1-3)[Gal(b1-4)]Glc6S
# How it was run: as §1
# [27] = target: Fuc(a1-3)[Gal(b1-4)]GlcNAc
# How it was run: as §1
# [28] = target: Fuc(a1-3)[Gal(b1-4)]GlcNAc(b1-2)Man(a1-3)[Fuc(a1-3)[Gal(b1-4)]GlcNAc(b1-2)Man(a1-6)]Man(b1-4)GlcNAc(b1-4)GlcNAc
# How it was run: as §1
# [29] = target: Fuc(a1-3)[Gal(b1-4)]GlcNAc(b1-2)Man(a1-6)[Gal(b1-4)GlcNAc(b1-2)Man(a1-3)]Man(b1-4)GlcNAc(b1-4)GlcNAc
# How it was run: as §1
# [30] = target: Fuc(a1-3)[Gal(b1-4)]GlcNAc(b1-3)Gal(b1-3)[Fuc(a1-4)]GlcNAc
# How it was run: as §1
# [31] = target: Fuc(a1-3)[Gal(b1-4)]GlcNAc(b1-4)Gal(b1-4)[Fuc(a1-3)]GlcNAc
# How it was run: as §1
# [32] = target: Fuc(a1-3)[Gal(b1-4)]GlcNAc(b1-4)Gal(b1-4)[Fuc(a1-3)]GlcNAc(b1-4)Gal(b1-4)[Fuc(a1-3)]GlcNAc
# How it was run: as §1
# [33] = target: Fuc(a1-3)[Gal(b1-4)]GlcNAc6S
# How it was run: as §1
# [34] = target: Fuc(a1-3)[Gal3S(b1-4)]Glc6S
# How it was run: as §1
# [35] = target: Fuc(a1-3)[Gal3S(b1-4)]GlcNAc
# How it was run: as §1
# [36] = target: Fuc(a1-3)[Gal3S(b1-4)]GlcNAc6S
# How it was run: as §1
binder,measurement,setting,value
"CLC (Homo sapiens), Q9UBD9 (protein) MDLRAGDSWGMLACLCTVLWHLPAVPALNRTGDPGPGPSIQKTYDLTRYLEHQLRSLAGTYLNYLGPPFNEPDFNPPRLGAETLPRATVDLEVWRSLNDKLRLTQNYEAYSHLLCYLRGLNRQAATAELRRSLAHFCTSLQGLLGSIAGVMAALGYPLPQPLPGTEPTWTPGPAHSDFLQKMDDFWLLKELQTWLWRSAKDFNRLKKKMQPPAAAVTLHLGAHGF",glycan array binding signal (z-score),Fuc(a1-2)Gal,-0.642
same,glycan array binding signal (z-score),Fuc(a1-2)Gal(b1-3)GalNAc,0.106
same,glycan array binding signal (z-score),[1],0.79
same,glycan array binding signal (z-score),[2],-0.131
same,glycan array binding signal (z-score),[3],1.57
same,glycan array binding signal (z-score),Fuc(a1-2)Gal(b1-3)GlcNAc,-0.253
same,glycan array binding signal (z-score),[4],-0.218
same,glycan array binding signal (z-score),[5],-0.678
same,glycan array binding signal (z-score),Fuc(a1-2)Gal(b1-4)Glc,0.506
same,glycan array binding signal (z-score),Fuc(a1-2)Gal(b1-4)Glc6S,-0.7
same,glycan array binding signal (z-score),Fuc(a1-2)Gal(b1-4)GlcNAc,-0.022
same,glycan array binding signal (z-score),[6],-0.731
same,glycan array binding signal (z-score),[7],-0.886
same,glycan array binding signal (z-score),[8],-0.106
same,glycan array binding signal (z-score),[9],-0.557
same,glycan array binding signal (z-score),[10],-0.519
same,glycan array binding signal (z-score),[11],0.011
same,glycan array binding signal (z-score),Fuc(a1-2)Gal6S(b1-4)Glc,-0.134
same,glycan array binding signal (z-score),[12],2.23
same,glycan array binding signal (z-score),[13],0.416
same,glycan array binding signal (z-score),Fuc(a1-2)[Gal(a1-3)]Gal,-0.644
same,glycan array binding signal (z-score),[14],-0.33
same,glycan array binding signal (z-score),[15],-0.24
same,glycan array binding signal (z-score),[16],1.5
same,glycan array binding signal (z-score),[17],0.566
same,glycan array binding signal (z-score),[18],0.55
same,glycan array binding signal (z-score),[19],-0.451
same,glycan array binding signal (z-score),[20],-0.974
same,glycan array binding signal (z-score),[21],1.52
same,glycan array binding signal (z-score),[22],-0.283
same,glycan array binding signal (z-score),[23],-0.821
same,glycan array binding signal (z-score),[24],-0.709
same,glycan array binding signal (z-score),[25],-0.573
same,glycan array binding signal (z-score),Fuc(a1-3)GlcNAc,-0.966
same,glycan array binding signal (z-score),[26],0.419
same,glycan array binding signal (z-score),[27],0.603
same,glycan array binding signal (z-score),[28],-0.566
same,glycan array binding signal (z-score),[29],-1.13
same,glycan array binding signal (z-score),[30],0.788
same,glycan array binding signal (z-score),[31],-0.378
same,glycan array binding signal (z-score),[32],-0.386
same,glycan array binding signal (z-score),[33],-0.923
same,glycan array binding signal (z-score),[34],0.919
same,glycan array binding signal (z-score),[35],-0.496
same,glycan array binding signal (z-score),[36],2.72

# Fetched one by one from above, three records:
binder,measurement,setting,value
"CLC (Homo sapiens), Q9UBD9 (protein) MDLRAGDSWGMLACLCTVLWHLPAVPALNRTGDPGPGPSIQKTYDLTRYLEHQLRSLAGTYLNYLGPPFNEPDFNPPRLGAETLPRATVDLEVWRSLNDKLRLTQNYEAYSHLLCYLRGLNRQAATAELRRSLAHFCTSLQGLLGSIAGVMAALGYPLPQPLPGTEPTWTPGPAHSDFLQKMDDFWLLKELQTWLWRSAKDFNRLKKKMQPPAAAVTLHLGAHGF",glycan array binding signal (z-score),[35],-0.496
same,glycan array binding signal (z-score),[13],0.416
same,glycan array binding signal (z-score),[23],-0.821
